Assay results reported in US20240374671A1.
No constants are given. Whether binding was seen depends on the method and setting. Some entries that bind do so weakly or less than the wild type.

Chains of the proteins cited; added tags and fusions are not shown. Lines headed by an entry give the natural chain unless they say otherwise; changes in a name come on top.
UniProt Q13705: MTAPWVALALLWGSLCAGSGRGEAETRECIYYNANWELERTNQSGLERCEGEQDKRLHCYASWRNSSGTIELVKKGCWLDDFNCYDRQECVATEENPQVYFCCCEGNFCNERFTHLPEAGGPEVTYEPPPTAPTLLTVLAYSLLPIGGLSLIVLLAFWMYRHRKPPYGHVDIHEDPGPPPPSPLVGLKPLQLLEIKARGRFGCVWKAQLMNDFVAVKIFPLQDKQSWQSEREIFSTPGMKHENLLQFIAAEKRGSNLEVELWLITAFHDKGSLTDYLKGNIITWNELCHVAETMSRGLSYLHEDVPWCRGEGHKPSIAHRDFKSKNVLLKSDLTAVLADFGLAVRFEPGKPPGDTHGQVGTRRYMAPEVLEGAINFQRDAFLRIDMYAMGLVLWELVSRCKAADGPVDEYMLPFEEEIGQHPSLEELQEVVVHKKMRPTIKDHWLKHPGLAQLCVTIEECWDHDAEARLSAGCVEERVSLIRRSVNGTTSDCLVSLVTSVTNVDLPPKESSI

Experiments:
[1] = target: dimeric hActRIIB (human) (UniProt Q13705); assay: SPR (Biacore), 37 C
[2] = target: monomeric hActRIIB (human) (UniProt Q13705); assay: SPR (Biacore), 37 C
[3] = target: dimeric hActRIIB (human) (UniProt Q13705); assay: SPR (BIACORE), 37 C, series of concentrations (not printed on the sheet)
[4] = target: monomeric hActRIIB (human) (UniProt Q13705); assay: as above

Measured: binding

B1: B01 (antibody, V domains shown)
VH: QVQLQESGPGLVKPSQTLSLTCTVSGGSILSGGYYWSWIRQHPGKGLEWIGGIYYSGKTYYNPSLKSRVTISVDTSKNQFSLKLSSVTAADTAVYYCARDSGIGYSYASSHGYYYYMDVWGKGTTVTVSS
VL: EIVLTQSPATLSVSPGERATLSCRASQSVGSNLAWYQQKPGQAPRLLIYGASTRATGIPARFSGSGSGTEFTLTISSLQSEDFAVYYCQQYFHFPLTFGGGTKVEIK
binds: all assays above
